From US7579376B2, “Geranyl compounds” (Ohgen Research Laboratories, Ltd., priority 2002, dated 2009)

tested on: HuH-7 cells (dendriform cell strain of human hepatoma); assay: Measurement of antitumor effect: HuH-7 carcinoma pieces hypodermically implanted in nude mice, carcinomas weighed after administration; format: in vivo; design: key: −: weak antitumor effect and very strong toxicity against host mice; +/−: weak antitumor effect recognizable and toxicity against host mice also observable; +: a fixed level of antitumor effect observable but toxicity against host mice also strong; ++: strong antitumor effect observed and toxicity against host mice week; +++: strong antitumor effect observed and no toxicity against host mice; details: overall grade of antitumor effect and toxicity against host mice
Experimental: Measurement of Antitumor Effect
Carcinoma of HuH-7 cells (dendriform cell strain of human hepatoma) hypodermically implanted or subimplanted in the backs of 5-weeks old female nude mice (BALB/c, Ninox) was aseptically taken out and crushed into 5×5 mm sized pieces in a phosphate buffer solution (PBS), a piece of which then being hypodermically implanted in the backs of the nude mice.
Each test substance was dissolved in corn oil, and the solution was intraperitoneally administered to the nude mice consecutively once per day at a rate of 250 μg/mouse for 3 weeks, starting from a week after the implantation. After termination of the administration, the carcinomas were taken out and weighed to calculate the antitumor effect and the mice' weight loss by the following equations. For the test six mice per group were used, and the group administered with the solvent (corn oil) alone was made the control group:
Evaluations of antitumor effect and weight loss were conducted according to the following standard, where the control group values were held to be 100%.
• −: >100%, +/−: 100˜75%, +: 75˜50%, ++: 50˜25%, +++: 25˜0% Weight Loss • −: >110%, +/−: 110˜100%, +: 100˜95%, ++: 95˜90%, +++: <90% Death Rate (Death Rate During the Test Period) • −: none • +/−: death occurred with high concentration administration (500 μg/mouse) • +: 1-3 mice dead • ++: 3-5 mice dead • +++: all 6 mice dead Synthetic Evaluation • −: weak antitumor effect and very strong toxicity against host mice • +/−: weak antitumor effect recognizable and toxicity against host mice also observable • +: a fixed level of antitumor effect observable but toxicity against host mice also strong • ++: strong antitumor effect observed and toxicity against host mice week • +++: strong antitumor effect observed and no toxicity against host mice

Row | Structure (SMILES) | Synthetic Evaluation
1 | CC(C)=CCC/C(C)=C/C(=O)NC1C(O)OC(CO)C(O)C1O (stereo not drawn) | +++
2 | CC(O)(CCO)CC(=O)NC1C(O)OC(CO)C(O)C1O (stereo not drawn) | +++
3 | CC(C)=CCC/C(C)=C/CNC(=O)/C=C/C(=O)NC/C=C(\C)CCC=C(C)C [N,N′-digeranylfumaric diamide, N,N′-digeranylfumaric Diamide] | ++
4 | CC(C)=CCC/C(C)=C/CNC(=O)CC(O)C(=O)NC/C=C(\C)CCC=C(C)C (stereo not drawn) [N,N′-digeranylmalic diamide, N,N′-digeranylmalic Diamide] | ++
5 | CC(=O)N[C@@H](Cc1ccc(O)cc1)C(=O)NC/C=C(\C)CCC=C(C)C [N-acetyltyrosine geranylamide, N-acetyltyrosine Geranylamide] | +
6 | CC(C)=CCC/C(C)=C/C(=O)NC1C(O)OC(C)C(O)C1O (stereo not drawn) [N-fucosegeranamide] | +++
7 | CC(C)=CCC/C(C)=C/C(=O)N[C@@H](Cc1ccc(O)cc1)C(=O)O [N-geranoyltyrosine] | ++
8 | CC(=O)C(=O)Nc1ccc(C(=O)NC/C=C(\C)CCC=C(C)C)cc1 [N-geranyl-4-pyruvoaminobenzamide, N-geranyl-p-pyruvoaminobenzamide] | +++
9 | CC(C)=CCC/C(C)=C/CNC(=O)[C@@H](N)Cc1ccc(O)cc1 [Tyrosine geranylamide, Tyrosine Geranylamide] | +
